In article PMC5421643:
Results are given in words; binding and its absence hold for the method and conditions named.

B1: ECD(1–432), deletion fragment of human Ecdysoneless protein (domain or fragment, UniProt O95905 1-432)
chain: MEETMKLATMEDTVEYCLFLIPDESRDSDKHKEILQKYIERIITRFAPMLVPYIWQNQPFNLKYKPGKGGVPAHMFGVTKFGDNIEDEWFIVYVIKQITKEFPELVARIEDNDGEFLLIEAADFLPKWLDPENSTNRVFFCHGELCIIPAPRKSGAESWLPTTPPTIPQALNIITAHSEKILASESIRAAVNRRIRGYPEKIQASLHRAHCFLPAGIVAVLKQRPRLVAAAVQAFYLRDPIDLRACRVFKTFLPETRIMTSVTFTKCLYAQLVQQRFVPDRRSGYRLPPPSDPQYRAHELGMKLAHGFEILCSKCSPHFSDCKKSLVTASPLWASFLESLKKNDYFKGLIEGSAQYRERLEMAENYFQLSVDWPESSLAMSPGEEILTLLQTIPFDIEDLKKEAANLPPEDDDQWLDLSPDQLDQLLQEAVG
B2: ECD(1–534), deletion fragment of human Ecdysoneless protein (domain or fragment, UniProt O95905 1-534)
chain: MEETMKLATMEDTVEYCLFLIPDESRDSDKHKEILQKYIERIITRFAPMLVPYIWQNQPFNLKYKPGKGGVPAHMFGVTKFGDNIEDEWFIVYVIKQITKEFPELVARIEDNDGEFLLIEAADFLPKWLDPENSTNRVFFCHGELCIIPAPRKSGAESWLPTTPPTIPQALNIITAHSEKILASESIRAAVNRRIRGYPEKIQASLHRAHCFLPAGIVAVLKQRPRLVAAAVQAFYLRDPIDLRACRVFKTFLPETRIMTSVTFTKCLYAQLVQQRFVPDRRSGYRLPPPSDPQYRAHELGMKLAHGFEILCSKCSPHFSDCKKSLVTASPLWASFLESLKKNDYFKGLIEGSAQYRERLEMAENYFQLSVDWPESSLAMSPGEEILTLLQTIPFDIEDLKKEAANLPPEDDDQWLDLSPDQLDQLLQEAVGKKESESVSKEEKEQNYDLTEVSESMKAFISKVSTHKGAELPREPSEAPITFDADSFLNYFDKILGPRPNESDSDDLDDEDFECLDSDDDLDFETHEPGEEAS

Experiments:
[1] = target: ECD(1–432), deletion fragment of human Ecdysoneless protein (human) (UniProt O95905); test: dynamic light scattering; purified fragment after Superdex75 into 20 mM HEPES pH 7.5, 250 mM NaCl, 5 mM β-mercaptoethanol; DynaPro MX/S; self-association tested; both purified
[2] = target: ECD(1–534), deletion fragment of human Ecdysoneless protein (human) (UniProt O95905); test: as above

Binder | binding [1] | binding [2]
B1 | no binding | 
B2 |  | no binding
